# No constants are given. Whether binding was seen depends on the method and setting.
# Sequences of proteins named here, by UniProt entry; tags and fusion partners are left off. A change or cut given only in a name is not applied to a line headed by its entry. A line that says so, or that is headed by a name, gives the form on record, which may keep a tag or linker.
# UniProt O14980: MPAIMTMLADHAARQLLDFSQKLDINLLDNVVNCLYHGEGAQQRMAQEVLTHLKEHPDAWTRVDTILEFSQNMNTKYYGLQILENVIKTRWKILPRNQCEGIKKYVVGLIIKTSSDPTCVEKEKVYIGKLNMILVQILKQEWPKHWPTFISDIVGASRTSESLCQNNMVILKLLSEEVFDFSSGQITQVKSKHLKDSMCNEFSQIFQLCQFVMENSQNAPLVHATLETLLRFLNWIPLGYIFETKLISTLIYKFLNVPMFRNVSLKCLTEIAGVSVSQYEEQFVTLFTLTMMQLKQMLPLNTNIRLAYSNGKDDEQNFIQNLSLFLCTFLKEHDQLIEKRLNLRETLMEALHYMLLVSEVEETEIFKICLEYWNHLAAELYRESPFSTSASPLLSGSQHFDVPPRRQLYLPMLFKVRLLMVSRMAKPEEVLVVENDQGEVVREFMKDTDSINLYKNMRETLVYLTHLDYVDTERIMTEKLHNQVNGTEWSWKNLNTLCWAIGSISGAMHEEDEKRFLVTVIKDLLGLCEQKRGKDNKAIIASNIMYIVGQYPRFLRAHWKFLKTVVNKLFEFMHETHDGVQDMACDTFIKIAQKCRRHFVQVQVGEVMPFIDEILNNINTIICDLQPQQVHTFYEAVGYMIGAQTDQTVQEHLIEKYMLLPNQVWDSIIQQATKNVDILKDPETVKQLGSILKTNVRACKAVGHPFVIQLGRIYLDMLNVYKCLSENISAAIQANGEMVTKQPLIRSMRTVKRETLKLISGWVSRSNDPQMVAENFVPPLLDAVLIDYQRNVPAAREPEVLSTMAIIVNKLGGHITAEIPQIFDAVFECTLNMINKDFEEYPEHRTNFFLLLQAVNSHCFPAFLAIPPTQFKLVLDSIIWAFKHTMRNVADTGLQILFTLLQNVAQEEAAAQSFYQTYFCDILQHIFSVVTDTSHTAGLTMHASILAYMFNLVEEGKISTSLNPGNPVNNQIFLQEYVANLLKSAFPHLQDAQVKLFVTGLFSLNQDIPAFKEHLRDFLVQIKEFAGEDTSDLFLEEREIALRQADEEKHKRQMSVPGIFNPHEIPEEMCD
# MBP-PHAX103–196 R147E, Y152E, Y154E (Q9H814, form named): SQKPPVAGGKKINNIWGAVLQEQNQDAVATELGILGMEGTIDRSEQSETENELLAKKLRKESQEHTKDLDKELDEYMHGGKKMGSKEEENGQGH
# MBP-PHAX103–196 W118E (Q9H814, form named): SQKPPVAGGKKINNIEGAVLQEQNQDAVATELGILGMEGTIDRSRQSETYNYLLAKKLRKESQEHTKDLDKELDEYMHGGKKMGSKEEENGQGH
# MBP-PHAX103–196 Y154A (Q9H814, form named): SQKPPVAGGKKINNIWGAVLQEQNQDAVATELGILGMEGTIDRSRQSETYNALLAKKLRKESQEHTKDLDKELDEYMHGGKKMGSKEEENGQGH
# Assays:
# [1] = target: Human CRM1 (human) (UniProt O14980); assay: SEC; Superdex 200 Increase 3.2/300; 180 pmol CBC and 360 pmol PHAX construct, CRM1 and RanGTP mixed with 100 μM capped 14-nt RNA (or U1 snRNA), 1 mM Mg2+, 1 mM KCl, 100 μM GTP, 30 min on ice; fractions on SDS-PAGE; both purified
# [2] = target: T1, Human nuclear cap-binding complex (CBC): CBP80ΔNLS with CBP20 (human) (UniProt Q09161+P52298); assay: as above
# T1 sequence 1: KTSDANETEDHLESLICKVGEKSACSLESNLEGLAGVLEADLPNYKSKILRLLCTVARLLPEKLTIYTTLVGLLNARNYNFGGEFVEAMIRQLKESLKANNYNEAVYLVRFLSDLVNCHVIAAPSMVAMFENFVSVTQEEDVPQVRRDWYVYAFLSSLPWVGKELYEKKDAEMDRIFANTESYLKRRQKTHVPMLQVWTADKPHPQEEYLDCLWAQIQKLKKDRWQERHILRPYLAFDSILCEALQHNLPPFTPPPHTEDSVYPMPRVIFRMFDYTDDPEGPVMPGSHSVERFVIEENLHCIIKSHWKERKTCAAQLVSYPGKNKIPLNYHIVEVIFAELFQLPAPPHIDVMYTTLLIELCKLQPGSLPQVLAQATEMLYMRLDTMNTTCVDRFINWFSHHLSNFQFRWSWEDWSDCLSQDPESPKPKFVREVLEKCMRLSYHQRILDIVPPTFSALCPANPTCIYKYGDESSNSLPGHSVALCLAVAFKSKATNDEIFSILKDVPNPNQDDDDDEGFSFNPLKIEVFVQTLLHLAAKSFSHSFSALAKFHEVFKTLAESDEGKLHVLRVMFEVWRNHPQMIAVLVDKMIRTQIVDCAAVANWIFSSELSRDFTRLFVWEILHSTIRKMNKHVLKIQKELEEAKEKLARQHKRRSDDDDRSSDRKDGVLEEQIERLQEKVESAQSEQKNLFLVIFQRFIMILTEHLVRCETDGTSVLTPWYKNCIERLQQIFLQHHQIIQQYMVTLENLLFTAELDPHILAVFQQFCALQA
# T1 sequence 2: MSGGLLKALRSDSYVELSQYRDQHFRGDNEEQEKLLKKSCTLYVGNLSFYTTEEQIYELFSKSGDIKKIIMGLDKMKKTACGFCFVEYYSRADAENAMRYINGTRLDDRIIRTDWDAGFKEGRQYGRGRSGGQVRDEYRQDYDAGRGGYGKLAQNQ
binding [1],binding [2],Substance
no binding,,"MBP-PHAX103–196 R147E, Y152E, Y154E (from UniProt Q9H814 103-196) (domain or fragment)"
no binding,no binding,MBP-PHAX103–196 W118E (from UniProt Q9H814 103-196) (domain or fragment)
no binding,,MBP-PHAX103–196 Y154A (from UniProt Q9H814 103-196) (domain or fragment)

# — paper PMC12350170, “Structural basis for the synergistic assembly of the snRNA export complex” (Nature Structural & Molecular Biology, 2025)
